Assay results from article PMC4270071.
No constants are given. Whether binding was seen depends on the method and setting. Some results given as binding are weak or reduced against the parent protein; the word gives no strength. Tags and fused reporters may be left off the sequences shown.

How the values were obtained:
Assay in all cases: co-purification of co-expressed subunits (tandem affinity); Sf9 cells co-expressing His6-DKC1 (wild type or mutant), GAR1, FLAG-NHP2, NOP10 (wild type or R34W); Ni-NTA, Heparin Sepharose (1 M NaCl eluate), anti-FLAG agarose, mock or MNase treated, washed with 0.6 M NaCl, FLAG peptide elution; silver or Coomassie stain
[1] = biological target: T1, His6-tagged human DKC1 A353V (Sf9) (human) (UniProt O60832)
T1 sequence: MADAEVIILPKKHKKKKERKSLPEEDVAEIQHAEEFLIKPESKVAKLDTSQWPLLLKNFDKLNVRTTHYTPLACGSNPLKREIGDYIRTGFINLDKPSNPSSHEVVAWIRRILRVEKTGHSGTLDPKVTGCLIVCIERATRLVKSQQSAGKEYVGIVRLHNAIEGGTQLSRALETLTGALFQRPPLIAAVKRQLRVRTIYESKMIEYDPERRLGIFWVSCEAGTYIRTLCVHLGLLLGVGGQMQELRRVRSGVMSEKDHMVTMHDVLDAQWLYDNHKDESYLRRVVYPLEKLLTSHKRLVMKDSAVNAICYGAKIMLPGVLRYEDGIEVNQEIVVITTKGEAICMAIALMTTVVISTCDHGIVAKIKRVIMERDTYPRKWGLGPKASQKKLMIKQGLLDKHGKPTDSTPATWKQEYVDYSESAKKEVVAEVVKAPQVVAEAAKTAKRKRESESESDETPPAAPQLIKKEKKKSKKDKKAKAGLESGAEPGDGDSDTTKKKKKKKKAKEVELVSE

[2] = biological target: T2, His6-tagged human DKC1 D125A (Sf9) (human) (UniProt O60832)
T2 sequence: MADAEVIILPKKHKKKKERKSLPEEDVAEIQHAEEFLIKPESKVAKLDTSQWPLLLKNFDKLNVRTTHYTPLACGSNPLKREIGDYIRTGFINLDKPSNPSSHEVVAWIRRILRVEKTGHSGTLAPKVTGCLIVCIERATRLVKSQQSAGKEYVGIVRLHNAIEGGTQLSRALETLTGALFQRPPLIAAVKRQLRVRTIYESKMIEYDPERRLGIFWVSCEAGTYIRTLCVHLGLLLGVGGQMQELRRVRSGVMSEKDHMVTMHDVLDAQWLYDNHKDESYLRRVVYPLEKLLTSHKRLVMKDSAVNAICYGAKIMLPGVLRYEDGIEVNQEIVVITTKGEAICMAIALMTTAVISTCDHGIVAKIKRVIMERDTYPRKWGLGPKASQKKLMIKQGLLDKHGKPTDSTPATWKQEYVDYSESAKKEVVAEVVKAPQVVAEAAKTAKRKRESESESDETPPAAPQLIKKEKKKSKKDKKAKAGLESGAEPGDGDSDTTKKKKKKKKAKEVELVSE

[3] = biological target: T3, His6-tagged human DKC1 L37del (Sf9) (human) (UniProt O60832)
T3 sequence: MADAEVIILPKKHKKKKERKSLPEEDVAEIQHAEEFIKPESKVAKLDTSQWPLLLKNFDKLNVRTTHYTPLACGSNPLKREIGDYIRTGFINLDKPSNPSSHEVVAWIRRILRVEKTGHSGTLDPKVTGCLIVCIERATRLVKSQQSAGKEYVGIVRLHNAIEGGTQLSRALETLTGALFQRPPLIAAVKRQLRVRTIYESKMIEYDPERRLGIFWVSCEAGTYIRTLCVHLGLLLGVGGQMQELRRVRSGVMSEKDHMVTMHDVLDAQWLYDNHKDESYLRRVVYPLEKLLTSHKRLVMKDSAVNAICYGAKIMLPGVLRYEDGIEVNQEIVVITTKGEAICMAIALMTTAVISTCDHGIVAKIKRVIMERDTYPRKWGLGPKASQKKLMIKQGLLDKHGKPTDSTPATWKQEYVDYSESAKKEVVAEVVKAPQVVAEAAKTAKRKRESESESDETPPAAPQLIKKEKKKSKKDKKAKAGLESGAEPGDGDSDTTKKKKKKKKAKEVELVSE

[4] = biological target: T4, His6-tagged human DKC1, wild type (Sf9) (human) (UniProt O60832)
T4 sequence: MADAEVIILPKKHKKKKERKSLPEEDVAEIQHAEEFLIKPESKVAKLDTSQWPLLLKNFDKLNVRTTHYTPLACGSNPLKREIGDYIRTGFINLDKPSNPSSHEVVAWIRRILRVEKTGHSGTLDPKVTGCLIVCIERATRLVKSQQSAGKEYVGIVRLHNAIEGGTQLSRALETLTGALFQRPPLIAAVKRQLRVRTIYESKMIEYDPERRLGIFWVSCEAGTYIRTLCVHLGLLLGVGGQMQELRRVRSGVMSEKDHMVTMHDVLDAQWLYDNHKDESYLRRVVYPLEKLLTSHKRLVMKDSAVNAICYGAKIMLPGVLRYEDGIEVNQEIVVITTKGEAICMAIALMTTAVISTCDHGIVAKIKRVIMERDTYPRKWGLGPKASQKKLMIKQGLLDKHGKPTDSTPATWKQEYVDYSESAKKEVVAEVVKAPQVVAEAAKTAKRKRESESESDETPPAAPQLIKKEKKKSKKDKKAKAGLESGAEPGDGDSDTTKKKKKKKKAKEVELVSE

binding [1]: binds | binding [2]: binds | binding [3]: binds | binding [4]: binds
B1: FLAG-tagged NHP2 (Sf9) (protein, UniProt Q9NX24 1-153)
chain: MTKIKADPDGPEAQAEACSGERTYQELLVNQNPIAQPLASRRLTRKLYKCIKKAVKQKQIRRGVKEVQKFVNKGEKGIMVLAGDTLPIEVYCHLPVMCEDRNLPYVYIPSKTDLGAAAGSKRPTCVIMVKPHEEYQEAYDECLEEVQSLPLPL
